Measured values reported in paper PMC2637609.
These are yes or no findings as the source states them, for the method shown. Binding seen in cells or lysates may run through a third protein. A result given as binding can be weak or reduced; the word gives no strength.

B1: Coilin (protein, UniProt A1Z7A8 1-634)
chain: MQHSSMKVDLSNFFKDERRNSLVFIDAAWNNIKDLQDHIQNLFSLKDISLLTSDGCYLPPRESIKVLNSAEGLKAFRFASHDSDTFVSPAPVKSSKKRKNRSVEEQVHLTASTPLRPSKRSKNQNNSEWINIAENPSRVRKKELLDMAPGPSVQSKLLTNKGTPKAPETQTEVSNMSANIETENKESAPQIKNKSKNKKPTKSPEASDQVENEPAPKSISRCTLKEGKMSESKNQETSPDILSEKSGVVTKENETREEQQDKTHLESNKIPDKLSQLKAGDQIEKSPGIAASLLSISFRSPLLEMPFNVPRIFQFPTKKQQIEILEYKKLKPISPRFLLQKGAKSDDTAKQFPSNGKDSTLKPKSYEILHDEELPDVKDKKNVSEGIKRAVAPLCEDIIETSTTLPGAIGAVESAYLDNSTEAETTLPSEAEATNPLELTESFLQNNTSMEKTPKVEKILPDDGSASPIKNNVDSKDVKTVTVPIFEEQLVSDSDDDVMLVDDSNIDVSYGDSDIEPIPVVENRQSLDIIRDLLRTATPLNSLPSRGDTVIFKLLKIKGNANSGTTEFVAGRCTYVNRRTKIVTVETITYPPEIGRMLRQYYMSGLDESSEDVRTLSIHLKDMLEAKIIVATID
B2: disk-large (Dlg) (protein, UniProt P31007 1-970)
chain: MPVKKQEAHRALELLEDYHARLSEPQDRALRIAIERVIRIFKSRLFQALLDIQEFYELTLLDDSKSIQQKTAETLQIATKWEKDGQAVKIADFIKSSNLNRNCAYEFNNDASSNQTNQSALNQNPIANNVSAQAQAEALSRTFKSELEEILNQRMRIESDTENAKEPTVEQQQKQQQAQQRSSRSPQQQNPQQQQGSKSRSGSQTVNGDDSWLYEDIQLERGNSGLGFSIAGGTDNPHIGTDTSIYITKLISGGAAAADGRLSINDIIVSVNDVSVVDVPHASAVDALKKAGNVVKLHVKRKRGTATTPAAGSAAGDARDSAASGPKVIEIDLVKGGKGLGFSIAGGIGNQHIPGDNGIYVTKLMDGGAAQVDGRLSIGDKLIAVRTNGSEKNLENVTHELAVATLKSITDKVTLIIGKTQHLTTSASGGGGGGLSSGQQLSQSQSQLATSQSQSQVHQQQHATPMVNSQSTEPGSRYASTNVLAAVPPGTPRAVSTEDITREPRTITIQKGPQGLGFNIVGGEDGQGIYVSFILAGGPADLGSELKRGDQLLSVNNVNLTHATHEEAAQALKTSGGVVTLLAQYRPEEYNRFEARIQELKQQAALGAGGSGTLLRTTQKRSLYVRALFDYDPNRDDGLPSRGLPFKHGDILHVTNASDDEWWQARRVLGDNEDEQIGIVPSKRRWERKMRARDRSVKFQGHAAANNNLDKQSTLDRKKKNFTFSRKFPFMKSRDEKNEDGSDQEPFMLCYTQDDANAEGASEENVLSYEAVQRLSINYTRPVIILGPLKDRINDDLISEYPDKFGSCVPHTTRPKREYEVDGRDYHFVSSREQMERDIQNHLFIEAGQYNDNLYGTSVASVREVAEKGKHCILDVSGNAIKRLQVAQLYPVAVFIKPKSVDSVMEMNRRMTEEQAKKTYERAIKMEQEFGEYFTGVVQGDTIEEIYSKVKSMIWSQSGPTIWVPSKESL

What was measured:
[1] = molecular target: T1, Fibrillarin (Drosophila (endogenous in larvae)) (UniProt Q9W1V3); experiment: co-IP; rabbit anti-Fibrillarin antibody; extracts of Drosophila stock expressing PARPe-EGFP (wild type as negative control); Western blot with mouse anti-GFP
T1 sequence: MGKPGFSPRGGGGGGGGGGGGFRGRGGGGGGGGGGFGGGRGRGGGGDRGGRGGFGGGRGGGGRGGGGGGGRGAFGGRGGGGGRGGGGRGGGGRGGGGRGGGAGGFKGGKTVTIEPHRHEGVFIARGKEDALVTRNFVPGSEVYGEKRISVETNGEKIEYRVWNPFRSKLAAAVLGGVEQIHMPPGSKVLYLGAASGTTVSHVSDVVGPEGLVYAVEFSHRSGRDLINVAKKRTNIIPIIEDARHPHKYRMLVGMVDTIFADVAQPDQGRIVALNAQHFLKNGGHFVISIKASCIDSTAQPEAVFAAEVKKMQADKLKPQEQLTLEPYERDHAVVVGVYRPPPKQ

[2] = molecular target: T2, Coilin (Drosophila (endogenous in larvae)) (UniProt A1Z7A8); experiment: co-IP; guinea pig anti-Coilin antibody, Protein-G Sepharose; total protein extracts of Drosophila PARP1 mutant stock expressing PARP1-ECFP or PARPe-EGFP (wild type as control); Western blot
T2 sequence: B1 chain

PARPe-EGFP (Drosophila) = experiment: co-IP; rabbit anti-GFP antibody, Protein-G Sepharose; extracts of Drosophila stocks expressing PARP1-ECFP or PARPe-EGFP (wild type as control); Western blot

Row | Molecule | binding [1] | binding [2] | binding (PARPe-EGFP (Drosophila))
1 | PARPe-EGFP (Drosophila) | binds | binds | 
2 | B1 |  |  | binds
3 | B2 |  |  | no binding
